No constants are given. Whether binding was seen depends on the method and setting. Some binding calls cover weakened binding; strength is not graded here.

Chains of the proteins cited; added tags and fusions are not shown. Residues count along the entry.
UniProt Q12306, residues 1-96: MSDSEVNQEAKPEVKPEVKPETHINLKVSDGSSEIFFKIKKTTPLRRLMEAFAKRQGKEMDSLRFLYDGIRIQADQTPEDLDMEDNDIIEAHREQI

The target in experiment [1] is T1, Gal4 DNA binding domain-Yen1 (full-length YEN1 in pAS1, plasmid pJ90) (S. cerevisiae) (UniProt P40028).
T1 sequence: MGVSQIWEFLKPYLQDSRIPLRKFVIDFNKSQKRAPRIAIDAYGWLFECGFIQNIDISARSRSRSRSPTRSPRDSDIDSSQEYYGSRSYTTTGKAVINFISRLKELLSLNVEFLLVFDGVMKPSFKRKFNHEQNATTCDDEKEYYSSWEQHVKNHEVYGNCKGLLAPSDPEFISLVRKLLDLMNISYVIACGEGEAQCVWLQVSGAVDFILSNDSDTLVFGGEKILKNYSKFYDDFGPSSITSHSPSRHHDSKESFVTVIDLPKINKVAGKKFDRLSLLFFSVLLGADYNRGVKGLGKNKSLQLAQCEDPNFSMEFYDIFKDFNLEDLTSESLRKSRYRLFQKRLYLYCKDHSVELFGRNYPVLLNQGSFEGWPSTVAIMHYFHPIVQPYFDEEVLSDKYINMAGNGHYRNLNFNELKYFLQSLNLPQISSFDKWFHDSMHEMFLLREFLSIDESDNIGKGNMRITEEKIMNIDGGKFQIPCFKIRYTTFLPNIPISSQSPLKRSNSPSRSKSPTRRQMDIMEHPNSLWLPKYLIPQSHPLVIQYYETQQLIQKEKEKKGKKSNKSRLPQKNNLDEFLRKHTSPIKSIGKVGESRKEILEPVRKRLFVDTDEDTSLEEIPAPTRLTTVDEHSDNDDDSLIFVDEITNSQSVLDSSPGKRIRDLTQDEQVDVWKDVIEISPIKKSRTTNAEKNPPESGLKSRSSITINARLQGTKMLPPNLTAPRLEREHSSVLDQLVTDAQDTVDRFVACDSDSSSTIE
The experiment is described as follows: two-hybrid; strain PJ69-4A (wild-type SMT3); GAL4BD-Yen1 or truncated/mutant derivatives as bait, GAL4AD fusions (pACTII) as prey; ten-fold serial dilutions spotted on SC-His and SC-Ade plates, 3 days at 30°C; library screen and directed tests.

In experiment [2] the target is T1, Gal4 DNA binding domain-Yen1 (full-length YEN1 in pAS1, plasmid pJ90) (S. cerevisiae). The experiment is described as follows: two-hybrid; as a1, but in PJ69-4A with the genomic smt3F37A point mutation (SAY1566), which reduces the interaction of SUMO with SIMs.
Experiment [3] shares this target. The experiment can be described thus: two-hybrid; strain PJ69-4A (wild-type SMT3); GAL4BD-Yen1 or truncated/mutant derivatives as bait, GAL4AD fusions (pACTII) as prey; ten-fold serial dilutions spotted on SC-His and SC-Ade plates, 3 days at 30°C; library screen and directed tests. The source holds these as a separate data set.

For “GAL4AD-Smt3 (1–96) (plasmid pF12) (from UniProt Q12306 1-96) (domain or fragment)”, the binding entry in experiment [1] was “no binding”.

B1: GAL4AD-Uls1 (aa 269–853), library clone (domain or fragment, UniProt Q08562 269-853)
chain: LPSNLSSVESSLKNETAKVEGKTTVRLPGLQNNVALLEQEQSELFKHFSEQPVDISDFGRKIKRKHSGDFADNKILKRPILPSKNMDHTTHNSHDSEQKNSSIIILSDEDESGAGINDIESPLKVSEPNTADALRSSVPEVISLLDLPNIDLNNSVIKEASGSNSIPTSETDAQSSSSSVLQGTIMTEQATQSSQHECNSSLDTLKKNHQKLLKDLNSRESELRNALSCCKTNSEILRRKLSRREKEVSDAEKHWQLLLTSMARGGRTISSTQQILVDEAENQLNKLKEKRQLTKSKLDSINLKMYNYNEQWKSFVHSKNINLQKSLAALERSARDSKASATVNKRNECLAEKEKLDQMLKEGTLSFSTYKQLTGEIQQKLNDLKLGDQRTTDINSVLPIVRQPLAKRDLFIKSIDTAKDLLAKNTSRTEMTKRILYRHLDNLVSYKNFFEDGRSLIDINRRHVAHESAQILFTNGVKMPIVFETLQDYGIKFSNPAIVNPDRRAQYFKSIEVARDLISKSTRSEDAKRKITRFLNIIEEFRKDIDTGFPPTPLKREGVGKAVVGLRQQGLKMDRLYENLRRYKI
In the case of B1, the binding entry in experiment [2] and in experiment [3] was “binds” in each case.

B2: GAL4AD-Pes4 (aa 200–456), library clone (domain or fragment, UniProt P39684 200-456)
chain: DTFSRYGKILSCKLDSRKDIGFVYFEDEKTARNVIKMYNNTSFFGKKILCGIHFDKEVRSVPNFETQKSRLDAETIIEKEQSLNEKHSKGNDKESKNIYSSSQNSIFIKNLPTITTRDDILNFFSEVGPIKSIYLSNATKVKYLWAFVTYKNSSDSEKAIKRYNNFYFRGKKLLVTRAQDKEERAKFIESQKISTLFLENLSAVCNKEFLKYLCHQENIRPFKIQIDGYDENSSTYSGFIKFRNFEDATRIFNFLNN
Take B2: the binding result in experiment [2] and in experiment [3] was “binds” in each case.

B3: GAL4AD-Oaf1 (aa 19–283), library clone (domain or fragment, UniProt P39720 19-283)
chain: STKPYSEAFFLGFNNPTPGLEAEHSSTSPAPENSETHNRKRNRILFVCQACRKSKTKCDREKPECGRCVKHGLKCVYDVSKQPAPRIPSKDAIISRLEKDMFYWKDKAMKLLTEREVNESGKRSASPINTNNASGDSPDTKKQHKMEPIYEQSGNGDINNGTRNDIEINLYRSHPTMIMSKVMKREVKPLSENYIIIQDCFLKILVTSVFLDTSKNTMIPALTANANITRAQPSVANNLLKLKEMLIRQCQTEDEKNRVNEFTDR
As for B3, the binding result in experiment [2] and in experiment [3] was “binds” throughout.

B4: GAL4AD-Fir1 (aa 629–876), library clone (domain or fragment, UniProt P40020 629-876)
chain: QNKEPTPLNQTPTDLIGKQRNCVNPHSIPFSVLSSNSQSSQSGSSKSSYNSEFSSNTAITDTTSQPSVTINRSTLEHNFIEEKRSIKNLGHGPPSQKNNYSFPRNKNTPSNRHDLDFNTIYEKRDGKMVEVILLDEDEDVGLKNNDISRTRVCHAQKAKNEQQKKRLSHCNEILGMCDKTADDAKRIIYQLVNEKHKFSEKGQQTKPKKSRVLPPLPFPLYDEKGNSLIPNKYQSSIHNDIPSHRKLK
Consider B4, for which the binding result in experiment [2] and in experiment [3] was “binds” each time.

B5: GAL4AD-Spo21 (aa 171–424), library clone (domain or fragment, UniProt Q12411 171-424)
chain: LLQNNNHFRHNKEIPQSKGSSNINTASIMSQYNVDTQATAIMSDMQKQYDSQQMTSPFVNEDLHFDPNGEVSHVIKAIFKEIGYKYDDFSDIPVFQLMQEMYQLVKKNSSARRTKITDYASKLKEKEAQLKSQNDKILKLETTNKAYKTKYKEVSLENKKIKEAFKELDNESYNHDEELLKKYKYTRETLDRVNREQQLIIDQNEFLKKSVNELQNEVNATNFKFSLFKEKYAKLADSITELNTSTKKREALGE
For the molecule B5, the binding result in experiment [2] and in experiment [3] was “binds” in each case.

The values above are taken from publication PMC6428284.
